Laboratory results: PubChem BioAssay AID1259405 (NCATS, 2018)
Here is one part, drawn at random, of about 50,000 reagents tested. About 4,000 of all reagents (8%) were called active. 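Mouse siRNA library applied to hamster cells; one well for each siRNA.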 A number with no mark means an inactive call. The numbers tell different reagents against one gene apart.

Purpose: 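Knock-downs that lift recombinant protein yield in hamster ovary cells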 (primary screen)
Cell system: Chinese hamster CHO-K1 ovary cells with stable secreted eGFP expression
Knock-down reagent: single siRNA against mouse genes, 0.8 pmol siRNA per well (2 µl of 400 nM stock)
Time to read-out: 3 days
Read-out: 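Per-well intracellular GFP measured by laser scanning cytometry, plus viability from ATP luminescence, each relative to plate median of non-targeting control wells, in %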
Direction: GFP, % of control: higher = more GFP per well, higher productivity; viability (ATP), % of control: higher = more viable cells (more ATP)
Active means: 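Called active when intracellular GFP, relative to negative control, is at or above 120%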

For Dapl1 #1, what does the deposit list?
GFP, % of control: 114; viability (ATP), % of control: 64

For Dapl1 #2, what does the deposit list?
GFP, % of control: 27.5; viability (ATP), % of control: 26

How did the screen score Dapl1 #3?
GFP, % of control: 80; viability (ATP), % of control: 93.4

How did the screen score Nup50 #1?
GFP, % of control: 151 (active); viability (ATP), % of control: 122

With Nup50 #2, what does the deposit list?
GFP, % of control: 67.4; viability (ATP), % of control: 51.8

For Nup50 #3, how do the results read?
GFP, % of control: 107; viability (ATP), % of control: 103

Which result is listed for Megf6 #1?
GFP, % of control: 87.2; viability (ATP), % of control: 92.4

How did the screen score Megf6 #2?
GFP, % of control: 135 (active); viability (ATP), % of control: 62.6

What is on record for Megf6 #3?
GFP, % of control: 60.2; viability (ATP), % of control: 55.4

For Lepr #1, what does the deposit list?
GFP, % of control: 77.8; viability (ATP), % of control: 36.9

With Lepr #2, what does the deposit list?
GFP, % of control: 91.7; viability (ATP), % of control: 67.7

For Lepr #3, how do the results read?
GFP, % of control: 81.5; viability (ATP), % of control: 52

With Cldn17 #1, how do the results read?
GFP, % of control: 69.4; viability (ATP), % of control: 62.7

How did the screen score Cldn17 #2?
GFP, % of control: 62; viability (ATP), % of control: 72.5

For Cldn17 #3, what was measured?
GFP, % of control: 77.4; viability (ATP), % of control: 119

How did the screen score Emx1 #1?
GFP, % of control: 69.1; viability (ATP), % of control: 73.2

What is on record for Emx1 #2?
GFP, % of control: 91.6; viability (ATP), % of control: 64.7

What did the screen give for Emx1 #3?
GFP, % of control: 30.4; viability (ATP), % of control: 24.4

With Capn3 #1, what does the deposit list?
GFP, % of control: 86.2; viability (ATP), % of control: 89.1

What is on record for Capn3 #2?
GFP, % of control: 80.8; viability (ATP), % of control: 83.6

With Capn3 #3, what was measured?
GFP, % of control: 69.4; viability (ATP), % of control: 70.7

Records above marked active (2):
Nup50 #1 — GFP, % of control = 151 (active); viability (ATP), % of control = 122
Megf6 #2 — GFP, % of control = 135 (active); viability (ATP), % of control = 62.6

Next results:
With Scnn1b #1, how do the results read?
GFP, % of control: 63.7; viability (ATP), % of control: 102

How did the screen score Scnn1b #2?
GFP, % of control: 165 (active); viability (ATP), % of control: 93.1

How did the screen score Scnn1b #3?
GFP, % of control: 70.1; viability (ATP), % of control: 60.3

For Orc3 #1, what does the deposit list?
GFP, % of control: 30.9; viability (ATP), % of control: 34

Which result is listed for Orc3 #2?
GFP, % of control: 57.3; viability (ATP), % of control: 62.1

Which result is listed for Orc3 #3?
GFP, % of control: 37.3; viability (ATP), % of control: 83.7

With A230052G05Rik #1, what does the deposit list?
GFP, % of control: 47.2; viability (ATP), % of control: 47.1

With A230052G05Rik #2, what does the deposit list?
GFP, % of control: 49.1; viability (ATP), % of control: 104

What did the screen give for A230052G05Rik #3?
GFP, % of control: 82.4; viability (ATP), % of control: 96.1

What did the screen give for Vmn1r202 #1?
GFP, % of control: 63.5; viability (ATP), % of control: 40.9

For Vmn1r202 #2, what does the deposit list?
GFP, % of control: 68.6; viability (ATP), % of control: 75.6

How did the screen score Vmn1r202 #3?
GFP, % of control: 97.1; viability (ATP), % of control: 98.3

Which result is listed for Ago1 #1?
GFP, % of control: 93.5; viability (ATP), % of control: 73

What is on record for Ago1 #2?
GFP, % of control: 65.8; viability (ATP), % of control: 88.5

What did the screen give for Ago1 #3?
GFP, % of control: 129 (active); viability (ATP), % of control: 108

What is on record for Or51f1d #1?
GFP, % of control: 90.2; viability (ATP), % of control: 36.9

What did the screen give for Or51f1d #2?
GFP, % of control: 76.1; viability (ATP), % of control: 77.6

With Or51f1d #3, what does the deposit list?
GFP, % of control: 87.7; viability (ATP), % of control: 91.8

For Lars1 #1, what does the deposit list?
GFP, % of control: 53.6; viability (ATP), % of control: 63.7

For Lars1 #2, how do the results read?
GFP, % of control: 106; viability (ATP), % of control: 104
